Values from PubChem BioAssay AID686938 (Drosophila RNAi Screening Center, 2013)
In all, the deposit lists about 23,000 reagents; this is a random part of those with a known target gene and a result. In the full data, 75 (0.33%) got an active call. 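Raw plate signals without normalisation; calls rest on plate z-scores that were not deposited; ratio present for only 364 wells.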 Unmarked entries are inactive. Not given: the dose of the treatment.

- Test: 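Knock-downs reducing store-operated calcium influx in Drosophila cells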 (primary screen)
- Cell system: Drosophila S2R+ cells
- Reagents: long dsRNA against Drosophila genes, about 0.25 µg dsRNA per well, roughly 10,000 cells
- Duration: 5 days of knock-down before the calcium assay
- Treatment: thapsigargin (SERCA pump blocker) to empty calcium stores; entry signal taken 4 min after adding it
- Measured: 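Duplicate raw fluo-4 intensities per well from a plate reader, at rest and four minutes after thapsigargin emptied calcium stores; entry-to-rest ratio filled for only some wells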
- Reading the numbers: calcium entry signal: higher = stronger calcium signal after store depletion; entry to resting ratio: higher = more calcium entry relative to resting level; resting calcium signal: higher = higher resting calcium signal
- Units: calcium entry signal in fluorescence units; resting calcium signal in fluorescence units
- Active means: 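Called when the plate z-score of the entry-to-rest ratio, mean of duplicates, falls below −3; wells with low overall dye signal (Fmax z below −2) or more than five off-targets excluded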
- Calls: active = strongly reduced calcium entry; inactive = no strong reduction

With grh [DRSC05680], what was measured?
calcium entry signal, replicate 1: 3.71e7; calcium entry signal, replicate 2: 3.61e7; resting calcium signal, replicate 1: 1.78e7; resting calcium signal, replicate 2: 1.91e7

For grh [DRSC05683], how do the results read?
calcium entry signal, replicate 1: 4.74e7; calcium entry signal, replicate 2: 3.79e7; resting calcium signal, replicate 1: 2.18e7; resting calcium signal, replicate 2: 1.98e7

With grh [DRSC07624], what does the deposit list?
calcium entry signal, replicate 1: 3.15e7; calcium entry signal, replicate 2: 3.13e7; resting calcium signal, replicate 1: 1.41e7; resting calcium signal, replicate 2: 1.57e7

What did the screen give for grh [DRSC07625]?
calcium entry signal, replicate 1: 4.20e7; calcium entry signal, replicate 2: 4.02e7; resting calcium signal, replicate 1: 1.75e7; resting calcium signal, replicate 2: 1.91e7

What did the screen give for CG10163 [DRSC09710]?
calcium entry signal, replicate 1: 2.77e7; calcium entry signal, replicate 2: 4.32e7; resting calcium signal, replicate 1: 1.37e7; resting calcium signal, replicate 2: 1.98e7

What did the screen give for nAChRalpha7 [DRSC20078]?
calcium entry signal, replicate 1: 4.34e7; calcium entry signal, replicate 2: 4.42e7; resting calcium signal, replicate 1: 2.23e7; resting calcium signal, replicate 2: 1.88e7

How did the screen score nAChRalpha7 [DRSC20081]?
calcium entry signal, replicate 1: 5.07e7; calcium entry signal, replicate 2: 5.41e7; resting calcium signal, replicate 1: 2.51e7; resting calcium signal, replicate 2: 2.46e7

Records above whose gene name begins with N or n:
nAChRalpha7 [DRSC20078] — calcium entry signal, replicate 1: 4.34e7; calcium entry signal, replicate 2: 4.42e7; resting calcium signal, replicate 1: 2.23e7; resting calcium signal, replicate 2: 1.88e7
nAChRalpha7 [DRSC20081] — calcium entry signal, replicate 1: 5.07e7; calcium entry signal, replicate 2: 5.41e7; resting calcium signal, replicate 1: 2.51e7; resting calcium signal, replicate 2: 2.46e7

The list goes on.
For CG31633 [DRSC02275], what does the deposit list?
calcium entry signal, replicate 1: 2.87e7; calcium entry signal, replicate 2: 3.12e7; resting calcium signal, replicate 1: 1.45e7; resting calcium signal, replicate 2: 1.47e7

What is on record for Cyp4d1 [DRSC17694]?
calcium entry signal, replicate 1: 5.24e7; calcium entry signal, replicate 2: 3.89e7; resting calcium signal, replicate 1: 2.53e7; resting calcium signal, replicate 2: 1.89e7

With Cyp4d1 [DRSC18456], how do the results read?
calcium entry signal, replicate 1: 4.81e7; calcium entry signal, replicate 2: 4.95e7; entry to resting ratio: 2; resting calcium signal, replicate 1: 2.42e7; resting calcium signal, replicate 2: 2.15e7

For CG3306 [DRSC10357], what was measured?
calcium entry signal, replicate 1: 6.01e7; calcium entry signal, replicate 2: 4.59e7; resting calcium signal, replicate 1: 3.89e7; resting calcium signal, replicate 2: 1.86e7

What is on record for CG4069 [DRSC10396]?
calcium entry signal, replicate 1: 5.43e7; calcium entry signal, replicate 2: 4.72e7; resting calcium signal, replicate 1: 3.53e7; resting calcium signal, replicate 2: 1.86e7

For Alp1 [DRSC11781], what was measured?
calcium entry signal, replicate 1: 3.10e7; calcium entry signal, replicate 2: 3.48e7; resting calcium signal, replicate 1: 1.48e7; resting calcium signal, replicate 2: 2.40e7

What is on record for SiaT [DRSC04494]?
calcium entry signal, replicate 1: 4.64e7; calcium entry signal, replicate 2: 3.99e7; resting calcium signal, replicate 1: 2.21e7; resting calcium signal, replicate 2: 1.92e7

What did the screen give for PKD [DRSC16200]?
calcium entry signal, replicate 1: 3.86e7; calcium entry signal, replicate 2: 5.50e7; resting calcium signal, replicate 1: 5.66e7; resting calcium signal, replicate 2: 2.47e7

How did the screen score TER94 [DRSC07560]?
calcium entry signal, replicate 1: 3.47e7; calcium entry signal, replicate 2: 2.32e7; resting calcium signal, replicate 1: 2.06e7; resting calcium signal, replicate 2: 1.53e7

How did the screen score Erk7 [DRSC18127]?
calcium entry signal, replicate 1: 3.51e7; calcium entry signal, replicate 2: 5.68e7; resting calcium signal, replicate 1: 1.71e7; resting calcium signal, replicate 2: 2.42e7

How did the screen score Erk7 [DRSC18227]?
calcium entry signal, replicate 1: 3.76e7; calcium entry signal, replicate 2: 4.89e7; resting calcium signal, replicate 1: 1.78e7; resting calcium signal, replicate 2: 2.42e7

For Erk7 [DRSC21895], what does the deposit list?
calcium entry signal, replicate 1: 3.45e7; calcium entry signal, replicate 2: 5.79e7; resting calcium signal, replicate 1: 1.62e7; resting calcium signal, replicate 2: 2.70e7

Which result is listed for CG9682 [DRSC16536]?
calcium entry signal, replicate 1: 4.53e7; calcium entry signal, replicate 2: 5.63e7; resting calcium signal, replicate 1: 2.05e7; resting calcium signal, replicate 2: 2.57e7

How did the screen score CG8388 [DRSC07157]?
calcium entry signal, replicate 1: 3.79e7; calcium entry signal, replicate 2: 4.87e7; resting calcium signal, replicate 1: 1.60e7; resting calcium signal, replicate 2: 2.12e7
